Data on three molecules can be found in paper PMC5890618, “Structural and Functional Insights into Bacillus subtilis Sigma Factor Inhibitor, CsfB” (Structure(London, England:1993), 2018).

For experiment [1], the target named is T1, σ^G (recombinant full-length sigma factor G, residues 1-260) (Bacillus subtilis) (UniProt P19940).
T1 sequence: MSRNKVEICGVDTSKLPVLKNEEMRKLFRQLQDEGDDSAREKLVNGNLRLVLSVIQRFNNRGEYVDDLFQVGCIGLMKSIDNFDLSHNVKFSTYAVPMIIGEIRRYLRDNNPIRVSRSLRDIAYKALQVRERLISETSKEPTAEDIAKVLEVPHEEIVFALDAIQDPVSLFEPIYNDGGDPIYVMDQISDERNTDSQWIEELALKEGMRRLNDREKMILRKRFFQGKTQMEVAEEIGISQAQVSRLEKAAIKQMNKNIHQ
The experiment in a line: ITC; cell 110 uM σ^G, syringe 1.6 mM CsfB^A48E; 25°C; 19 injections of 2 ul; 50 mM HEPES pH 7.5, 150 mM KCl, 0.5 mM TCEP; both purified.

Experiment [2] concerns the target T2, CsfB^1-48 (truncated wild-type CsfB, stable degradation product, residues 1-48) (Bacillus subtilis) (UniProt P37534).
T2 sequence: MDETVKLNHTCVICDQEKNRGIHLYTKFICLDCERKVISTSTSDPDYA
The experiment in a line: ITC; cell 60 uM CsfB^A48E, syringe 395 uM σ^E; 25°C; 19 injections of 2 ul; 50 mM HEPES pH 7.5, 150 mM KCl, 0.5 mM TCEP; fitted assuming 1:1 stoichiometry; both purified.

Experiment [3] addresses T2, CsfB^1-48 (truncated wild-type CsfB, stable degradation product, residues 1-48) (Bacillus subtilis). Nature of the experiment: NMR titration; 15N-labelled CsfB (100 uM for CsfB^A48E) titrated with unlabelled sigma factor up to 1:2 molar equivalents; 1H-15N SOFAST-HMQC; 298 K; 50 mM HEPES pH 7.5, 150 mM KCl, 0.5 mM TCEP; both purified.

Results are given in words; binding and its absence hold for the method and conditions named.

B1: CsfB^1-48 (truncated wild-type CsfB, stable degradation product, residues 1-48) (domain or fragment, Bacillus subtilis, UniProt P37534 1-48, looked up)
chain: T2 sequence
notes: Produced as N-terminally histidine-tagged full-length CsfB that degraded to 1-48; Symmetrical homodimer by NMR; also called cleaved CsfB; truncated variant; source: E. coli BL21(DE3)pLysS, purified (HisTrap Ni Sepharose, Superdex75 SEC); arises by degradation of recombinant full-length CsfB
As for B1, the binding result in experiment [1] was “no binding”.

B2: σ^E (truncated sigma factor E, residues 17-239, lacking the N-terminal membrane-anchored pro-sequence) (domain or fragment, Bacillus subtilis, UniProt P06222 17-239, looked up)
chain: MKLGLKSDEVYYIGGSEALPPPLSKDEEQVLLMKLPNGDQAARAILIERNLRLVVYIARKFENTGINIEDLISIGTIGLIKAVNTFNPEKKIKLATYASRCIENEILMYLRRNNKIRSEVSFDEPLNIDWDGNELLLSDVLGTDDDIITKDIEANVDKKLLKKALEQLNEREKQIMELRFGLVGEEEKTQKDVADMMGISQSYISRLEKRIIKRLRKEFNKMV
notes: Cloned into pET28-TxrA; The tag was removed with TEV 'when required'; also called sigma E; SigE; source: E. coli BL21(DE3)pLysS, purified (HisTrap Ni Sepharose, Superdex75 SEC)
Turning to B2, the binding entry in experiment [2] and in experiment [3] was “no binding” throughout.

B3: σ^G (recombinant full-length sigma factor G, residues 1-260) (protein, UniProt P19940 1-260)
chain: T1 sequence
Regarding B3, the binding entry in experiment [3] is reported as “no binding”.
